The supplement of paper PMC10849652
Some of the results follow.

Sequences of proteins named here, by UniProt entry; tags and fusion partners are left off. A change or cut given only in a name is not applied to a line headed by its entry.
UniProt P41223: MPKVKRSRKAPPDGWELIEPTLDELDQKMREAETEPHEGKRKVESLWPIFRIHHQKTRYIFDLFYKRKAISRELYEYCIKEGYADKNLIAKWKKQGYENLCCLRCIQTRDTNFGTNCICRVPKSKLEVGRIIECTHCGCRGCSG
UniProt Q49AR2: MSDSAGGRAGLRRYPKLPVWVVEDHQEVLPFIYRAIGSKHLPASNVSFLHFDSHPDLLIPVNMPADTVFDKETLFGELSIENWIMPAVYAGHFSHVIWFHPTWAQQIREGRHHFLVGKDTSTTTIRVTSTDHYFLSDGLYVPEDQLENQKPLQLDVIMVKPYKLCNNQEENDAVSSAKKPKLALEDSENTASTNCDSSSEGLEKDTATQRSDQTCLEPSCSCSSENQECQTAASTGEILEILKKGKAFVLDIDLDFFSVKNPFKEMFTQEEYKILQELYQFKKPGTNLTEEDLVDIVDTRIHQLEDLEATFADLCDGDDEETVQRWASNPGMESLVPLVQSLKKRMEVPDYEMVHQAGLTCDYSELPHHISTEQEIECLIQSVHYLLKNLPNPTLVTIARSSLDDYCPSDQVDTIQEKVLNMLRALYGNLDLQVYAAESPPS
UniProt Q8WVQ1: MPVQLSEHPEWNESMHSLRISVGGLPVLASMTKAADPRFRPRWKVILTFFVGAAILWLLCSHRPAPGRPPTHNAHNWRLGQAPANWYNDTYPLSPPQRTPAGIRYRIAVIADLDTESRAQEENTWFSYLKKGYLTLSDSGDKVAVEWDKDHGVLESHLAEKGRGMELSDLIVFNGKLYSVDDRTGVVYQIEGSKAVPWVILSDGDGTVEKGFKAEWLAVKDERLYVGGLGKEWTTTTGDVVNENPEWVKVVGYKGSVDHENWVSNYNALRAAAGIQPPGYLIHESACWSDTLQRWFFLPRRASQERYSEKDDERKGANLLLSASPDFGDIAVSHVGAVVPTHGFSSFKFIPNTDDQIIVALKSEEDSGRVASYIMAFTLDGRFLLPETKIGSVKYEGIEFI
UniProt Q8N5I9: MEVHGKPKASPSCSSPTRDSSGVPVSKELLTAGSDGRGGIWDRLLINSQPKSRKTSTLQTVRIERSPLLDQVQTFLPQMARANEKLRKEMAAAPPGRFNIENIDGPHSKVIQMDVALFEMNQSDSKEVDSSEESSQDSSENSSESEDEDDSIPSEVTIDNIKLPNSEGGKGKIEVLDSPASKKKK
UniProt Q6P1X6: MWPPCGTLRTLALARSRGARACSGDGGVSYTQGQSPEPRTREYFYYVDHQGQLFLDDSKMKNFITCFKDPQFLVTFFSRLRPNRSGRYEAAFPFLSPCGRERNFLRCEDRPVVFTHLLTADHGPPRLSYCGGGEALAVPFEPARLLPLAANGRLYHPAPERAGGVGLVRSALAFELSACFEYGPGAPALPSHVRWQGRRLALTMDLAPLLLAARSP
UniProt Q9Y426: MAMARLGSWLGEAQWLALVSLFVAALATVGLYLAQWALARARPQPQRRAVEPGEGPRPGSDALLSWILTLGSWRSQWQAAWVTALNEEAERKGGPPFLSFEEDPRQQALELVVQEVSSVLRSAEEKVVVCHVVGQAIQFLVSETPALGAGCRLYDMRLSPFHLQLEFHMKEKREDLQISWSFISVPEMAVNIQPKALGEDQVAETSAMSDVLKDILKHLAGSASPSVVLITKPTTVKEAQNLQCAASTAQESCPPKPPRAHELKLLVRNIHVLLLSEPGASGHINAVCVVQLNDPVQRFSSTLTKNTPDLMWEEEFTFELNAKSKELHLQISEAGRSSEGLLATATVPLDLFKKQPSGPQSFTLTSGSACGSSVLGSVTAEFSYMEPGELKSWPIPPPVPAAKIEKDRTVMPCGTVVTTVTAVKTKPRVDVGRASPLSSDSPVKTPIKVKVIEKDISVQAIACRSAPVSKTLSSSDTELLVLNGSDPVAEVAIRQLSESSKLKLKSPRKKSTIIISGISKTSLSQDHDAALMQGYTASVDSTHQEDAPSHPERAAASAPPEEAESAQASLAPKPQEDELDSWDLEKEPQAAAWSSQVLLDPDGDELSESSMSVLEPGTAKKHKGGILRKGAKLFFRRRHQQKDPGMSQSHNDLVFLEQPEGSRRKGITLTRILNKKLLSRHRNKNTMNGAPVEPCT
UniProt P17655: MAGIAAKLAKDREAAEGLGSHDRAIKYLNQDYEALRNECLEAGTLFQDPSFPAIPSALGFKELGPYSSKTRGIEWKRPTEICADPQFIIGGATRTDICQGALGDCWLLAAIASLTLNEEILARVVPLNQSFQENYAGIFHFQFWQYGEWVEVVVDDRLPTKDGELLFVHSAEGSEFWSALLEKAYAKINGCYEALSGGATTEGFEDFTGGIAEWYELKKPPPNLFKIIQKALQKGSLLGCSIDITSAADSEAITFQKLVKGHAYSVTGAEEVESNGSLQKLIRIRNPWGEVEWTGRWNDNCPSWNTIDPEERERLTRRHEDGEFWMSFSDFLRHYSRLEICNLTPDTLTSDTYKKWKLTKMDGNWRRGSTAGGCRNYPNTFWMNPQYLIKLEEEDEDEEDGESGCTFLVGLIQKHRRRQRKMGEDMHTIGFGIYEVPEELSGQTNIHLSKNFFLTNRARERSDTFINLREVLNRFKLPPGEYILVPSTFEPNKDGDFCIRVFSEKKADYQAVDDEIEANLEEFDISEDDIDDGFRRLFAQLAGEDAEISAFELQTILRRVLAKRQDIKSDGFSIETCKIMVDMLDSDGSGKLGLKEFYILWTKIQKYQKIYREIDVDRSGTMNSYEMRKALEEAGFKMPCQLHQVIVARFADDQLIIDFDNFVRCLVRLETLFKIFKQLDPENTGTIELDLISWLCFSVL
UniProt O43852: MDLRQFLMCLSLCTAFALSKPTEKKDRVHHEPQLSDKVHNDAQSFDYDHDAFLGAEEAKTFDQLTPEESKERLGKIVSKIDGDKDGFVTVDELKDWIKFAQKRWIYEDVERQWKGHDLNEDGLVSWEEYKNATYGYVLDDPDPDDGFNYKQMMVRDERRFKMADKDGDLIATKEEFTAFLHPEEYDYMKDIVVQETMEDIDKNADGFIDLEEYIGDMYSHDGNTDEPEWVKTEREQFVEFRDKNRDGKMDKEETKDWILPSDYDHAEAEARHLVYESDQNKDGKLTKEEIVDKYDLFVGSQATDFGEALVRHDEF
UniProt Q8N8R5: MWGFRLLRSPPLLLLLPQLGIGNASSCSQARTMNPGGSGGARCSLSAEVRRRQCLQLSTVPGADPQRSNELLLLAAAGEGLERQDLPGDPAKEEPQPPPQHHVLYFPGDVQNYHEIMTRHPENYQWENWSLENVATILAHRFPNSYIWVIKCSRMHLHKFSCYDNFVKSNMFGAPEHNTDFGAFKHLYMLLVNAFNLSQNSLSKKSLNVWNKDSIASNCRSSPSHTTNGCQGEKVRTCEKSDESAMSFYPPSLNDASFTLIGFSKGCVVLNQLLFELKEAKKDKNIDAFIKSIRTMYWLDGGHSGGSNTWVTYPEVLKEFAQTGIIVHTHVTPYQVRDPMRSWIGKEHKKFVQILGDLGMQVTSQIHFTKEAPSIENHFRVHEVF
UniProt Q86YS7: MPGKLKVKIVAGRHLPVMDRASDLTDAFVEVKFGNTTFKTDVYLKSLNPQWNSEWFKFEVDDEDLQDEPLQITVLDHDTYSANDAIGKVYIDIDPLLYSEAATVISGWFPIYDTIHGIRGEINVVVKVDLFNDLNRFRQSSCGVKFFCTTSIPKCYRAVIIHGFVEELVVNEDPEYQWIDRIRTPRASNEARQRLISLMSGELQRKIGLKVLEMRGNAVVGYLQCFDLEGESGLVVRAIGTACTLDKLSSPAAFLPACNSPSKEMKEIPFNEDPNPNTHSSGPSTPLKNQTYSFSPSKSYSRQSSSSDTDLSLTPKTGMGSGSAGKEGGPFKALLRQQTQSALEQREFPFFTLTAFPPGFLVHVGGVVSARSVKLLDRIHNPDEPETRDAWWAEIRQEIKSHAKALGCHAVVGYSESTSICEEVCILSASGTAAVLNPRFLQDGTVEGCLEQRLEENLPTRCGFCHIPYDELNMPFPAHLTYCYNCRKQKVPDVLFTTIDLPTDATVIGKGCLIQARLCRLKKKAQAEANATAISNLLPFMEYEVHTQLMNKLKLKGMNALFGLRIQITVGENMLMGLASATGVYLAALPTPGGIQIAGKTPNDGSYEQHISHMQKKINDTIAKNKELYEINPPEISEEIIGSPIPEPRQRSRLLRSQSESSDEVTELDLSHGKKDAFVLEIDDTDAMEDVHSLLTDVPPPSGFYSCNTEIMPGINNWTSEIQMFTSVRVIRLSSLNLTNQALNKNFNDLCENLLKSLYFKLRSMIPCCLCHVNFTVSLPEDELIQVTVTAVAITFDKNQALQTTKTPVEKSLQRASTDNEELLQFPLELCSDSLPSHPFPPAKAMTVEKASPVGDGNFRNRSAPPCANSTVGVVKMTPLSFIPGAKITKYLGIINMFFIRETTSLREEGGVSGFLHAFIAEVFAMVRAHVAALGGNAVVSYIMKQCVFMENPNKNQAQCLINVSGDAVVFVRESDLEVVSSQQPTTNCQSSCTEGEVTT
UniProt P47756, whole entry, looked up: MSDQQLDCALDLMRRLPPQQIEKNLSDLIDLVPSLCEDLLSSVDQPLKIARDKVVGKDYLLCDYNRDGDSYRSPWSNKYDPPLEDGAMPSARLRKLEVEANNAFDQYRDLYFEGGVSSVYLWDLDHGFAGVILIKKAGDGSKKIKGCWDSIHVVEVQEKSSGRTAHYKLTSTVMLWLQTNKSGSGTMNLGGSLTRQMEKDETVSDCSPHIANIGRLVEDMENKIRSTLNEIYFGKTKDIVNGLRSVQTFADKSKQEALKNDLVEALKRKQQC
UniProt Q96B23: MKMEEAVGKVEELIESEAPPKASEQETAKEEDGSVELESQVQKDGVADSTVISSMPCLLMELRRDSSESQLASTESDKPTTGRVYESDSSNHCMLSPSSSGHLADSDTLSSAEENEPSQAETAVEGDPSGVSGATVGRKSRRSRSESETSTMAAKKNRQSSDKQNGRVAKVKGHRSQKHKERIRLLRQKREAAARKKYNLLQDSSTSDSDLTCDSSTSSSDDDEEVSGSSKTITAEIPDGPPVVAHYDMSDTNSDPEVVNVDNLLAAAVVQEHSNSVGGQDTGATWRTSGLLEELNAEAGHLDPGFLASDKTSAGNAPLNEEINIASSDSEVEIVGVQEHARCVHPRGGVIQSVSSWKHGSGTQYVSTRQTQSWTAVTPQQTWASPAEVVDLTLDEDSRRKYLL
UniProt Q9H425: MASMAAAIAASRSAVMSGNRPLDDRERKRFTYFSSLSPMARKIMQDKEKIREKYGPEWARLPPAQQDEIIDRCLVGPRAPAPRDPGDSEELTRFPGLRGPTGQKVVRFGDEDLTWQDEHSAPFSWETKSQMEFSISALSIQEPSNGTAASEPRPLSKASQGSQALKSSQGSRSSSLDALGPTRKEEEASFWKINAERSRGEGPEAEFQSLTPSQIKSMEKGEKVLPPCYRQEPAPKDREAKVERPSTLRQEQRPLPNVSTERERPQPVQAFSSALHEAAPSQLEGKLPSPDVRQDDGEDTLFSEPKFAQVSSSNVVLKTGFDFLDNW
UniProt Q8N999, whole entry, looked up: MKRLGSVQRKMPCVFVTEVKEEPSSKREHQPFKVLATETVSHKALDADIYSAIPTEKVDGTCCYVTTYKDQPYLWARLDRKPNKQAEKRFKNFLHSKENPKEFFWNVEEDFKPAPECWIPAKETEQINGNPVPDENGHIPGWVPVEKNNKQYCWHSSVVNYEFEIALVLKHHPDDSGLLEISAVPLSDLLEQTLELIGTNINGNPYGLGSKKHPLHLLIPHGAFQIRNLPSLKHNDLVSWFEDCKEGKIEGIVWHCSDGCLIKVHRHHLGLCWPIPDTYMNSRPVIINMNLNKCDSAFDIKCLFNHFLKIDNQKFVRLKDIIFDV
UniProt O43709: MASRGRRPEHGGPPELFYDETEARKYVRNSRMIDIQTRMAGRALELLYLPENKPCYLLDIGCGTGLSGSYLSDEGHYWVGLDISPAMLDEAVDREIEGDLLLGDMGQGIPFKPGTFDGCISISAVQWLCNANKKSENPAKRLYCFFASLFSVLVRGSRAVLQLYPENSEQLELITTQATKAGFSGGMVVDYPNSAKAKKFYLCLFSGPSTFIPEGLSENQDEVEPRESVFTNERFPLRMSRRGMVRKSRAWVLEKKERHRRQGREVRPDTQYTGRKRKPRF

Experiments:
Test in all cases: log2 fold change, soluble protein after heating vs DMSO (PISA); higher = thermal stabilisation; K562 cells, 10 uM, 30 min; active = over 0.2 and 3.5 SD of the protein, either way, in both replicates (recomputed)
saracatinib = compound: CN1CCN(CCOc2cc(OC3CCOCC3)c3c(Nc4c(Cl)ccc5c4OCO5)ncnc3c2)CC1 [saracatinib]
Method in brief: (§1)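 Quantification of soluble protein used TMTpro 16plex LC-MS/MS, with channel sums equalised. Samples were the supernatant after 21,000xg for 90 min of pooled aliquots from K562 cells (2×10^6 cells/mL) treated with 10 μM compound for 30 min, heated for 3 min over 48°C-58°C, and extracted in PBS with 0.5% NP-40 at 4°C. Values, from duplicates, describe thermal stability against control samples on a log2 fold-change scale.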

sotrastaurin = compound: CN1CCN(c2nc(C3=C(c4c[nH]c5ccccc45)C(=O)NC3=O)c3ccccc3n2)CC1 [sotrastaurin]
Method in brief: as §1

alvocidib = compound: CN1CC[C@H](c2c(O)cc(O)c3c(=O)cc(-c4ccccc4Cl)oc23)[C@H](O)C1 [alvocidib]
Method in brief: as §1

Tubastatin A = compound: CN1CCc2c(c3ccccc3n2Cc2ccc(C(=O)NO)cc2)C1 [Tubastatin A]
Method in brief: as §1

[1] = compound: CNC(=O)C1=CC=CC=C1NC2=NC(=NC=C2Cl)NC3=C(C=C(C=C3)N4CCOCC4)OC
Method in brief: as §1

defactinib = compound: CNC(=O)c1ccc(Nc2ncc(C(F)(F)F)c(NCc3nccnc3N(C)S(C)(=O)=O)n2)cc1 [defactinib]
Method in brief: as §1

rucaparib = compound: CNCc1ccc(-c2[nH]c3cc(F)cc4c3c2CCNC4=O)cc1 [rucaparib]
Method in brief: as §1

[2] = compound: CNc1nc(-c2ccc3c(N)n[nH]c3c2)cc(N2C[C@@H](C(=O)NC3CCCCC3)CC[C@H]2C)n1
Method in brief: as §1

encorafenib = compound: COC(=O)N[C@@H](C)CNc1nccc(-c2cn(C(C)C)nc2-c2cc(Cl)cc(NS(C)(=O)=O)c2F)n1 [encorafenib]
Method in brief: as §1

[3] = compound: COC(=O)[C@H](CCSC)NC(=O)C1=C(C=C(C=C1)NC[C@H](CS)N)C2=CC=CC=C2
Method in brief: as §1

[4] = compound: COC1=CC=C(C=C1)CN2C=CC3=C2C=C(C=C3)C(=O)NO
Method in brief: as §1

filanesib = compound: CON(C)C(=O)N1N=C(c2cc(F)ccc2F)S[C@@]1(CCCN)c1ccccc1 [filanesib]
Method in brief: as §1

zotarolimus = compound: CO[C@H]1C[C@@H]2CC[C@@H](C)[C@@](O)(O2)C(=O)C(=O)N2CCCC[C@H]2C(=O)O[C@H]([C@H](C)C[C@@H]2CC[C@H](n3cnnn3)[C@H](OC)C2)CC(=O)[C@H](C)/C=C(\C)[C@@H](O)[C@@H](OC)C(=O)[C@H](C)C[C@H](C)/C=C/C=C/C=C/1C [zotarolimus]
Method in brief: as §1

idasanutlin = compound: COc1cc(C(=O)O)ccc1NC(=O)[C@@H]1N[C@@H](CC(C)(C)C)[C@](C#N)(c2ccc(Cl)cc2F)[C@H]1c1cccc(Cl)c1F [idasanutlin]
Method in brief: as §1

alisertib = compound: COc1cc(Nc2ncc3c(n2)-c2ccc(Cl)cc2C(c2c(F)cccc2OC)=NC3)ccc1C(=O)O [alisertib]
Method in brief: as §1

[5] = compound: COc1cc2nc(-c3cc(F)ccc3O)nc(N[C@@H]3CNC[C@H]3C(C)(C)O)c2cc1OC
Method in brief: as §1

gefitinib = compound: COc1cc2ncnc(Nc3ccc(F)c(Cl)c3)c2cc1OCCCN1CCOCC1 [gefitinib]
Method in brief: as §1

[6] = compound: COc1cccc2cc(-c3nc([C@H]4CC[C@H](C(=O)O)CC4)n4ncnc(N)c34)[nH]c12
Method in brief: as §1

lapatinib = compound: CS(=O)(=O)CCNCc1ccc(-c2ccc3ncnc(Nc4ccc(OCc5cccc(F)c5)c(Cl)c4)c3c2)o1 [lapatinib]
Method in brief: as §1

pictilisib = compound: CS(=O)(=O)N1CCN(Cc2cc3nc(-c4cccc5[nH]ncc45)nc(N4CCOCC4)c3s2)CC1 [pictilisib]
Method in brief: as §1

Measured: log2 fold change

BUD31 (UniProt P41223)
inactive: saracatinib -0.004 | sotrastaurin 0.011 | alvocidib -0.022 | Tubastatin A -0.01 | [1] 0.007 | defactinib -0.002 | rucaparib 0.048 | [2] -0.026 | encorafenib -0.064 | [3] -0.021 | [4] 0.044 | filanesib -0.057 | zotarolimus 0.035 | idasanutlin -0.017 | alisertib -0.052 | [5] 0.089 | gefitinib -0.064 | [6] -0.077 | lapatinib 0.003 | pictilisib 0.069

C5orf22 (UniProt Q49AR2)
inactive: saracatinib 0.001 | sotrastaurin 0.013 | alvocidib -0.026 | Tubastatin A -0.091 | [1] -0.033 | defactinib 0.014 | rucaparib -0.003 | [2] 0.02 | encorafenib -0.024 | [3] 0.012 | [4] -0.045 | filanesib -0.086 | zotarolimus -0.035 | idasanutlin -0.058 | alisertib -0.058 | [5] 0.099 | gefitinib -0.03 | [6] -0.005 | lapatinib 0.017 | pictilisib 0.044

CANT1 (UniProt Q8WVQ1)
inactive: saracatinib 0.02 | sotrastaurin 0.004 | alvocidib -0.053 | Tubastatin A -0.009 | [1] 0.012 | defactinib 0.001 | rucaparib -0.032 | [2] -0.046 | encorafenib -0.066 | [3] -0.029 | [4] 0.01 | filanesib -0.052 | zotarolimus -0.061 | idasanutlin -0.036 | alisertib 0.215 | [5] 0.017 | gefitinib -0.01 | [6] 0.04 | lapatinib -0.019 | pictilisib 0.114

C12orf45 (UniProt Q8N5I9)
inactive: saracatinib 0.052 | sotrastaurin -0.01 | alvocidib -0.002 | Tubastatin A 0.028 | [1] -0.015 | defactinib -0.014 | rucaparib -0.118 | [2] -0.056 | encorafenib -0.007 | [3] 0.021 | [4] 0.052 | filanesib -0.012 | zotarolimus -0.012 | idasanutlin -0.02 | alisertib -0.055 | [5] 0.022 | gefitinib -0.039 | [6] 0 | lapatinib 0.004 | pictilisib 0.028

C8orf82 (UniProt Q6P1X6)
inactive: saracatinib 0.067 | sotrastaurin -0.027 | alvocidib -0.003 | Tubastatin A -0.062 | [1] -0.008 | defactinib 0.027 | rucaparib 0.046 | [2] -0.062 | encorafenib -0.026 | [3] -0.012 | [4] 0.019 | filanesib -0.04 | zotarolimus 0.012 | idasanutlin 0.015 | alisertib -0.028 | [5] 0.017 | gefitinib 0.018 | [6] 0.005 | lapatinib 0.001 | pictilisib 0.003

C2CD2 (UniProt Q9Y426)
inactive: saracatinib 0.016 | sotrastaurin 0.055 | alvocidib 0.177 | Tubastatin A 0.031 | [1] -0.124 | defactinib -0.031 | rucaparib -0.012 | [2] -0.022 | encorafenib -0.005 | [3] 0.064 | [4] 0.031 | filanesib 0.146 | zotarolimus 0.02 | idasanutlin 0.025 | alisertib 0.004 | [5] 0.1 | gefitinib 0.073 | [6] 0.041 | lapatinib 0.026 | pictilisib 0.063

CAPN2 (UniProt P17655)
inactive: saracatinib 0.054 | sotrastaurin 0.029 | alvocidib -0.028 | Tubastatin A -0.002 | [1] -0.039 | defactinib 0.008 | rucaparib -0.062 | [2] 0.014 | encorafenib -0.043 | [3] 0.033 | [4] -0.043 | filanesib -0.096 | zotarolimus 0.016 | idasanutlin -0.024 | alisertib -0.111 | [5] -0.031 | gefitinib 0.01 | [6] 0.041 | lapatinib 0.006 | pictilisib 0.064

CALU isoform 3 (UniProt O43852)
inactive: saracatinib 0.064 | sotrastaurin 0.045 | alvocidib 0.011 | Tubastatin A -0.019 | [1] -0.015 | defactinib 0.009 | rucaparib -0.1 | [2] -0.045 | encorafenib -0.017 | [3] 0.034 | [4] -0.043 | filanesib -0.007 | zotarolimus -0.035 | idasanutlin 0.019 | alisertib -0.038 | [5] 0.012 | gefitinib 0.004 | [6] 0.058 | lapatinib -0.003 | pictilisib 0.001

C2orf69 (UniProt Q8N8R5)
inactive: saracatinib 0.039 | sotrastaurin 0 | alvocidib -0.067 | Tubastatin A -0.017 | [1] -0.035 | defactinib -0.003 | rucaparib -0.094 | [2] -0.142 | encorafenib 0.05 | [3] 0.057 | [4] 0.006 | filanesib 0.027 | zotarolimus -0.004 | idasanutlin -0.141 | alisertib -0.029 | [5] 0.001 | gefitinib 0.076 | [6] 0.016 | lapatinib -0.058 | pictilisib -0.002

C2CD5 isoform 4 (UniProt Q86YS7)
inactive: saracatinib -0.028 | sotrastaurin 0.004 | alvocidib 0.049 | Tubastatin A 0.057 | [1] -0.081 | defactinib 0.026 | rucaparib -0.061 | [2] -0.057 | encorafenib 0.001 | [3] 0.03 | [4] 0.043 | filanesib 0.145 | zotarolimus 0.019 | idasanutlin -0.083 | alisertib 0.045 | [5] 0.157 | gefitinib 0.037 | [6] 0.048 | lapatinib -0.004 | pictilisib 0.119

CAPZB isoform 2 (UniProt P47756)
inactive: saracatinib 0.067 | sotrastaurin -0.013 | alvocidib 0.039 | Tubastatin A -0.036 | [1] 0.035 | defactinib 0.02 | rucaparib -0.086 | [2] -0.063 | encorafenib 0.028 | [3] 0.101 | [4] -0.02 | filanesib -0.034 | zotarolimus -0.006 | idasanutlin -0.019 | alisertib -0.048 | [5] 0.048 | gefitinib 0.008 | [6] -0.037 | lapatinib 0.009 | pictilisib -0.018

C18orf25 (UniProt Q96B23)
inactive: saracatinib 0.003 | sotrastaurin 0.091 | alvocidib -0.03 | Tubastatin A -0.009 | [1] -0.06 | defactinib -0.025 | rucaparib -0.032 | [2] -0.078 | encorafenib -0.067 | [3] 0.097 | [4] -0.031 | filanesib 0.008 | zotarolimus 0.059 | idasanutlin -0.026 | alisertib -0.008 | [5] 0.022 | gefitinib 0.059 | [6] 0.034 | lapatinib 0.005 | pictilisib 0.01

C1orf198 (UniProt Q9H425)
inactive: saracatinib 0.047 | sotrastaurin -0.003 | alvocidib 0.019 | Tubastatin A 0.094 | [1] -0.041 | defactinib -0.082 | rucaparib -0.153 | [2] 0.003 | encorafenib -0.042 | [3] 0.073 | [4] -0.059 | filanesib -0.119 | zotarolimus -0.054 | idasanutlin 0.052 | alisertib -0.026 | [5] -0.064 | gefitinib -0.028 | [6] -0.014 | lapatinib 0.095 | pictilisib -0.027

BTF3L4 (UniProt Q96K17)
inactive: saracatinib -0.001 | sotrastaurin 0.026 | alvocidib 0.013 | Tubastatin A 0.006 | [1] -0.013 | defactinib -0.038 | rucaparib -0.008 | [2] -0.057 | encorafenib -0.007 | [3] 0.002 | [4] 0.077 | filanesib -0.034 | zotarolimus -0.072 | idasanutlin -0.051 | alisertib -0.004 | [5] -0.045 | gefitinib -0.026 | [6] 0.04 | lapatinib 0.036 | pictilisib -0.001

Two consecutive records already listed, quoted:
C12orf45 (UniProt Q8N5I9)
inactive: saracatinib 0.052 | sotrastaurin -0.01 | alvocidib -0.002 | Tubastatin A 0.028 | [1] -0.015 | defactinib -0.014 | rucaparib -0.118 | [2] -0.056 | encorafenib -0.007 | [3] 0.021 | [4] 0.052 | filanesib -0.012 | zotarolimus -0.012 | idasanutlin -0.02 | alisertib -0.055 | [5] 0.022 | gefitinib -0.039 | [6] 0 | lapatinib 0.004 | pictilisib 0.028

C8orf82 (UniProt Q6P1X6)
inactive: saracatinib 0.067 | sotrastaurin -0.027 | alvocidib -0.003 | Tubastatin A -0.062 | [1] -0.008 | defactinib 0.027 | rucaparib 0.046 | [2] -0.062 | encorafenib -0.026 | [3] -0.012 | [4] 0.019 | filanesib -0.04 | zotarolimus 0.012 | idasanutlin 0.015 | alisertib -0.028 | [5] 0.017 | gefitinib 0.018 | [6] 0.005 | lapatinib 0.001 | pictilisib 0.003

The list goes on:

C12orf29 (UniProt Q8N999)
inactive: saracatinib -0.014 | sotrastaurin 0.021 | alvocidib 0.049 | Tubastatin A -0.102 | [1] 0.014 | defactinib -0.007 | rucaparib -0.026 | [2] -0.057 | encorafenib -0.002 | [3] 0.054 | [4] -0.082 | filanesib 0.061 | zotarolimus -0.046 | idasanutlin 0 | alisertib -0.013 | [5] 0.099 | gefitinib -0.031 | [6] 0.039 | lapatinib -0.003 | pictilisib -0.007

BUD23 isoform 3 (UniProt O43709)
inactive: saracatinib -0.037 | sotrastaurin 0.036 | alvocidib 0.13 | Tubastatin A -0.059 | [1] 0.009 | defactinib 0.066 | rucaparib 0.01 | [2] 0.032 | encorafenib 0.112 | [3] -0.004 | [4] -0.08 | filanesib 0.092 | zotarolimus -0.021 | idasanutlin 0.001 | alisertib -0.006 | [5] 0.011 | gefitinib -0.038 | [6] -0.061 | lapatinib 0.034 | pictilisib 0.011
